The values below come from US20100136660A1 (published 2010).

Amino acid sequences for entries named in this document (tags omitted). Residues count along the entry.
UniProt P00703, residues 19-147: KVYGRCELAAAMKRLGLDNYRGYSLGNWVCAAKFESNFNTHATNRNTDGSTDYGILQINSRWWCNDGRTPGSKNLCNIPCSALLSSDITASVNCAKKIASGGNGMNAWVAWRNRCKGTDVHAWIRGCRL

No constants are given. Whether binding was seen depends on the method and setting. Some entries that bind do so weakly or less than the wild type.

The target of the assay is turkey egg-white lysozyme (turkey) (UniProt P00703). In words: phage ELISA, 3 mg/ml turkey egg white lysozyme coating.

B1: human scFv VH14.1/VL14.1 (lysozyme binder from unimmunized library) (scFv, V domains shown)
VH: QVQLQESGPGLVKPSETLSLVCTVSGGSLSFSYWGWIRQPPGKGLEWIGYISHRGTDYNSSLQSRVTISADTSKNQFSLKLSSVTAADTAVYYCARSFSNSFFFGYWGQGT
VL: SSELTQDPAVSVAFGQTVRITCQGDSLRSSYASWYQQKPGQAPLLVIYGENSRPSGIPDRFSGSSSGNTASLTITGAQAEDEADYYCNSRDSRGTHLEVFGG
notes: scFv on phage from pHEN1
Consider B1, for which the binding entry was “binds”.

B2: human scFv VH13.1/VL13.1 (lysozyme binder from unimmunized library) (scFv, V domains shown)
VH: QVQLVQSGAEVKKPGQSLMISCQGSGYSFSNYWIGWVRQMPGKGLEWMGIIYPGDSDTRYSPSFQGQVTISADKSISTAYLHWSSLKASDTALYYCARLVGGTPAYWGQGT
VL: HVILTQPASVSGSPGQSITISCTGSSRDVGGYNYVSWYQHHPGKAPKLLISEVTNRPSGVSNRFSGSKSGNTASLTISGLQAEDEADYFCASYTSSKTYVFGG
notes: scFv on phage from pHEN1
As to B2, the binding result is “binds”.
